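Whole-cell growth test on Mycobacterium tuberculosis, read after 3 days in glucose-containing 7H9 medium; the read-out is not stated. Tested at 500 µM. Direction is inferred from retests: higher values go with more growth inhibition. Of about 18,000 compounds tested this way, about 1,400 (7.9%) reached 50% or more in at least one test.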

Values are the deposited “Percent Effect”, in %.
The record does not define 0% and 100%; most values in the screen are far below 50% and negative numbers occur (in some assays of this library far below -100).
Compounds were drawn at random from those tested, without regard to their results.

Compound | percent effect
CC(=O)N1CCC(C(=O)Nc2ccc(C)c(C)c2)CC1 | 24.45
Cn1nnnc1NCc1cccc(Cl)c1Cl | 58.45
COc1cc(C(=O)N2C[C@H](C(C)C)[C@@H](N)C2)ccc1C | 43.89
CCOCC(=O)NCC(C)(O)c1ccsc1 (centres unmarked) | 34.07
COc1ccc(CCN)c(Cl)c1OC | 54.79
O=C1CCCCCCN1CC(=O)N1CCCS1(=O)=O | 8.149
COCC(O)CNc1ncnc2c1CCNCC2 (centres unmarked) | -9.969
COC(=O)CCCC(=O)Nc1ncc(C)[nH]1 | 8.855
OCc1ccc(Cc2c[nH]cn2)cc1 | 5.216
NC[C@@H]1Cc2ccccc2CO1 | 2.586
CSCC(CCO)NC(=O)c1cc(Br)c[nH]1 (centres unmarked) | 30.16
O=C(Cn1cnc2ccccc2c1=O)N1CCCCC1 | 1.203
Cc1cccc(CNC(=O)C2CCCCC(=O)N2)c1 (centres unmarked) | -10.58
Cc1ccsc1CNC(=O)CSCC#N | 27.11
Cc1cc(CC(=O)NCCSc2nnc(C)s2)on1 | 0.2079
CC(C)(C)OC(=O)N1CCN2C(=N)NCC2C1 (centres unmarked) | 23.66
N#CCCNC(=O)CN1CCCCCC1 | 2.848
Nc1nnc(SCCN2CCCCC2)[nH]1 | 8.215
CN(CC(=O)N1CCNC(=O)C1)Cc1csc(Br)c1 | 27.2
COCCN1CCCN(C(=O)c2cc(C)no2)CC1 | 7.478
N#CCOc1ccc(CN)cc1 | 9.523
NCc1nnc2n1CCC2 | 5.658
CN1CCC(N(C)C(=O)CCN)CC1 | -1.57
CC(=O)Nc1nc(C(=O)NCCc2cccnc2)cs1 | -3.601
O=C(Nc1nccs1)N1CCCN(C(=O)C2CC2)CC1 | 30.82
CC(C)(C)OC(=O)NCC1CNCCCO1 (centres unmarked) | 6.673
COCCCC(=O)N1CCN(CC(C)O)CC1 (centres unmarked) | 4.665
Cc1noc(C(C)N2CCN(S(=O)(=O)N(C)C)CC2)n1 (centres unmarked) | 5.18
CN(CCNc1ncccc1C#N)C(=O)OC(C)(C)C | 43.26
O=C(NC1CC1)[C@@H]1CCCN1C(=O)c1ccccc1 | 4.414
CCCOc1nsnc1N1CCOCC1 | -7.841
CCNC(=O)C1CCN(C(=O)Cc2cccc(O)c2)C1 (centres unmarked) | 13.49
Cc1ccccc1C1(O)CNC1 | 38.93
Cc1cc(Br)oc1C(=O)N1CCCN(C)CC1 | 50.75
O=S(=O)(C1CC1)N1CCC(NCc2ccco2)CC1 | 5.9
COc1ccc(NC(=O)CCN2CCCSCC2)cc1 | 10.19
COCCNC(=O)[C@@H](N)CC(C)C | -0.4534
CC1CC(=O)NCCN1 (centres unmarked) | 52.48
COc1nc(N)cc(=O)[nH]1 | -16.9
Cc1cccnc1NCCNC(=O)Cc1ccsc1 | 29.05
NC(=O)c1cccc(NC(=O)N2CC(O)(C3CC3)C2)c1 | 17.9
CCNS(=O)(=O)c1ccc(CC(=O)N(C)C)cc1 | 7.995
CN1CC(CN(C)C(=O)c2sccc2Cl)CC1=O (centres unmarked) | 16.09
CCN1CCN(C(=O)c2ccc(NC(C)=O)cc2)CC1 | 6.225
CCOc1ccc(C(=O)NC(CC)(CO)CO)cc1 | 3.016
CCc1ccc(C(=O)NCCCN2CCCC2=O)s1 | -6.704
CCN[C@H](C)CNC(=O)c1ccccc1 | -3.663
CN1C(=O)[C@H]2CN(Cc3ccc(Cl)cc3)C[C@H]2C1=O | 39.14
CNC(=O)CCNC(=O)c1sc2ccccc2c1C | 39.01
CCOc1ccc2c(c1)C(N)CCO2 (centres unmarked) | 46.06
O=C(Cn1ccc(=O)[nH]c1=O)NCc1cccnc1 | -2.627
CNC(=O)CCSc1ccc2c(c1)OCCO2 | 67.74
CC(C)COc1cncc(NC(C)CO)n1 (centres unmarked) | 73.26
O=C(NCc1nccs1)c1csc(NC2CC2)n1 | 49.26
CC1(NC(=O)C2CCC2)CCS(=O)(=O)C1 (centres unmarked) | 0.2751
COc1ccnc(N2CCC(c3nncn3C)CC2)n1 | 18.86
CN(CCCNC(=O)c1cccs1)S(C)(=O)=O | 25.92
CC(C)n1nccc1[C@H]1OCC[C@@H]1N | 15.77
OCCOc1ccc(CN2CCCCCC2CO)cc1 (centres unmarked) | 11.46
CC(Cn1cccn1)NC(=O)CCc1ccc(F)cc1 (centres unmarked) | 33.91
C[C@H](CO)N(C)C(=O)Cc1cccc(OC(F)(F)F)c1 | 6.64
O=C(NC1CCN(C2CCOCC2)CC1)c1ccoc1 | -2.827
NC(=O)c1cccc(NC(=O)Cc2ccc(F)cc2)c1 | 39.36
CCN(CC)c1ncccc1CNC(=O)C1CCCO1 (centres unmarked) | 18.38
CCc1nc2c(c(NC)n1)CCNCC2 | 19.11
CCOc1ccc(C(=O)NC2(C)CCS(=O)(=O)C2)cn1 (centres unmarked) | 19.82
COCC(C)C(=O)Nc1ccc2c(c1)CCCN2 (centres unmarked) | 9.504
Cn1ccc2ccc(NS(=O)(=O)C3CC3)cc2c1=O | -9.035
COC(=O)CS(=O)(=O)c1ccc(C)c(Cl)c1 | 80.75
COc1cccc(C(=O)NC2CCN(C(C)C)CC2)c1 | 18.85
Cn1cccc1CN1CC(O)(CC#N)C1 | 2.67
Cc1ccc(NC(=O)C(C)N2CCC(O)CC2)c(C)c1 (centres unmarked) | 24.54
O=C(Cn1cnnn1)NCC1(c2ccccc2)CCC1 | 50.13
COc1ncccc1CNC(=O)C1=NN(C)C(=O)CC1 | 11.19
COC(C(=O)NCC1(C)COC1)c1ccccc1 (centres unmarked) | -2.855
Cc1nn(CCC#N)c(C)c1Cl | 19.42
CCN(CC)CCCN1CCOC2(CCOC2)C1 (centres unmarked) | 0.2992
Cc1nn(C)c(Cl)c1C(=O)N1CC(n2cccn2)C1 | -6.523
CNC(=O)CCNS(=O)(=O)c1cc(C)cc(Br)c1 | -4.915
CC(N)C(=O)N(CCN(C)C)Cc1ccccc1F (centres unmarked) | 17.63
NC(=O)NC(=O)CN1CCCC1c1ccsc1 (centres unmarked) | 25.43
CN(C)CCOc1cc(N)ccn1 | 7.661
CCn1cc(C(=O)Nc2nnc(C)s2)cn1 | -7.446
N[C@@H]1CC[C@@H](NS(=O)(=O)N2CCc3ccccc3C2)C1 | 8.281
CC(C)c1nc(C2CCCN2)no1 (centres unmarked) | 16.11

10 of the entries, repeated:

| Compound | percent effect |
|---|---|
| `CC1(NC(=O)C2CCC2)CCS(=O)(=O)C1` (centres unmarked) | 0.2751 |
| `OCCOc1ccc(CN2CCCCCC2CO)cc1` (centres unmarked) | 11.46 |
| `N#CCOc1ccc(CN)cc1` | 9.523 |
| `CSCC(CCO)NC(=O)c1cc(Br)c[nH]1` (centres unmarked) | 30.16 |
| `CC(N)C(=O)N(CCN(C)C)Cc1ccccc1F` (centres unmarked) | 17.63 |
| `CCc1nc2c(c(NC)n1)CCNCC2` | 19.11 |
| `O=C(NC1CCN(C2CCOCC2)CC1)c1ccoc1` | -2.827 |
| `CC(C)COc1cncc(NC(C)CO)n1` (centres unmarked) | 73.26 |
| `O=S(=O)(C1CC1)N1CCC(NCc2ccco2)CC1` | 5.9 |
| `Cc1cccnc1NCCNC(=O)Cc1ccsc1` | 29.05 |

From ChEMBL document CHEMBL3988442, “University of Dundee, Small-Polar-MMV Screening Library” (2021).